Among the data in patent US5972958A, “4-aminoalkoxy-1,3-dihydro-benzoimidazol-2-thiones” (American Home Products Corporation, priority 1998, dated 1999) are Ratio values, retold here.

SMILES strings stand for the structures.

The subject of this data set is dopamine D2 receptor. Nature of the data set: Intrinsic activity at the dopamine D2 receptor, ratio LowAg/HighAg. In kind it is binding. As to conditions: LowAg/HighAg: IC50 D2 Spiper / IC50 D2 Quin.
In the case of `S=c1[nH]c2cccc(OCCNCc3ccccc3)c2[nH]1` [Example 1, 4-(2-Benzylamino-ethoxy)-1,3-dihydro-benzoimidazol-2-thione], the Ratio amounted to 92.6.

Take `Cc1ccc(CNCCOc2cccc3[nH]c(=S)[nH]c23)cc1` [Example 2, 4-[2-(4-Methyl-benzylamino)-ethoxy]-1,3-dihydro-benzoimidazole-2-thione]: the Ratio came to 89.8.

For `S=c1[nH]c2cccc(OCCCNCc3ccccc3)c2[nH]1` [Example 3], the Ratio turned out to be 79.9.

With `S=c1[nH]c2cccc(OCCNCc3cccc4ccccc34)c2[nH]1` [Example 4, 4-{2-[(Naphthalen-1-ylmethyl)-amino]-ethoxy}-1,3-dihydro-benzoimidazole-2-thione], the Ratio amounted to 85.8.

Consider `CC(C)(C)c1ccc(CNCCOc2cccc3[nH]c(=S)[nH]c23)cc1` [Example 5, 4-[2-(4-tert-Butyl-benzylamino)-ethoxy]-1,3-dihydro-benzoimidazole-2-thione], for which the Ratio was 8.4.

Regarding `S=c1[nH]c2cccc(OCCNCc3ccc(Cl)cc3)c2[nH]1` [Example 6, 4-[2-(4-Chloro-benzylamino)-ethoxy]-1,3-dihydro-benzoimidazole-2-thione], the Ratio is reported as 409.3.

With `S=c1[nH]c2cc(Cl)cc(OCCNCc3ccccc3)c2[nH]1` [Example 7, 4-(2-Benzylamino-ethoxy)-6-chloro-1,3-dihydro-benzoimidazole-2-thione], the Ratio was 139.0.

Turning to `S=c1[nH]c2cc(Cl)cc(OCCNCc3cccs3)c2[nH]1` [Example 8, 6-Chloro-4-{2-[(thiophen-2-ylmethyl)-amino]-ethoxy}-1,3-dihydro-benzoimidazole-2-thione], the Ratio came to 237.8.

For `S=c1[nH]c2cc(Cl)cc(OCCNCc3ccsc3)c2[nH]1` [Example 9, 6-Chloro-4-{2-[(thiophen-3-ylmethyl)-amino]-ethoxy}-1,3-dihydro-benzoimidazole-2-thione], the Ratio was found to be 472.2.

As for `S=c1[nH]c2cccc(OCCN3CCc4ccccc4C3)c2[nH]1` [Example 10, 4-[2-(3,4-Dihydro-1H-isoquinolin-2-yl)-ethoxy]-1,3-dihydro-benzoimidazole-2-thione], the Ratio is 87.6.
